## Library screen at single concentrations

Chains of the proteins cited; added tags and fusions are not shown. Residues count along the entry.
UniProt A4I591, 1-473: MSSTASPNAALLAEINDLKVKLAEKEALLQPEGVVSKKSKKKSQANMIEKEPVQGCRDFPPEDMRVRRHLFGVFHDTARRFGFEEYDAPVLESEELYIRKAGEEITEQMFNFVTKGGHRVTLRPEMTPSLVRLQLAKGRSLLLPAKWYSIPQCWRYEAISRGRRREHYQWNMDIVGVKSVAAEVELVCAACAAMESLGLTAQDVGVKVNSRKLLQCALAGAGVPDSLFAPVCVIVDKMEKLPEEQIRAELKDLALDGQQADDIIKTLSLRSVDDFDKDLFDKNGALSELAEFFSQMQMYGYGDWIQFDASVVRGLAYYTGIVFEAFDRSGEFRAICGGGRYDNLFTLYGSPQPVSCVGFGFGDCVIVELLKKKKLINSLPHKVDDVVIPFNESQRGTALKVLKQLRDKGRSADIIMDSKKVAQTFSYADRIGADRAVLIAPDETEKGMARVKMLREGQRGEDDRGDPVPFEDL
UniProt I6X8D2, whole entry: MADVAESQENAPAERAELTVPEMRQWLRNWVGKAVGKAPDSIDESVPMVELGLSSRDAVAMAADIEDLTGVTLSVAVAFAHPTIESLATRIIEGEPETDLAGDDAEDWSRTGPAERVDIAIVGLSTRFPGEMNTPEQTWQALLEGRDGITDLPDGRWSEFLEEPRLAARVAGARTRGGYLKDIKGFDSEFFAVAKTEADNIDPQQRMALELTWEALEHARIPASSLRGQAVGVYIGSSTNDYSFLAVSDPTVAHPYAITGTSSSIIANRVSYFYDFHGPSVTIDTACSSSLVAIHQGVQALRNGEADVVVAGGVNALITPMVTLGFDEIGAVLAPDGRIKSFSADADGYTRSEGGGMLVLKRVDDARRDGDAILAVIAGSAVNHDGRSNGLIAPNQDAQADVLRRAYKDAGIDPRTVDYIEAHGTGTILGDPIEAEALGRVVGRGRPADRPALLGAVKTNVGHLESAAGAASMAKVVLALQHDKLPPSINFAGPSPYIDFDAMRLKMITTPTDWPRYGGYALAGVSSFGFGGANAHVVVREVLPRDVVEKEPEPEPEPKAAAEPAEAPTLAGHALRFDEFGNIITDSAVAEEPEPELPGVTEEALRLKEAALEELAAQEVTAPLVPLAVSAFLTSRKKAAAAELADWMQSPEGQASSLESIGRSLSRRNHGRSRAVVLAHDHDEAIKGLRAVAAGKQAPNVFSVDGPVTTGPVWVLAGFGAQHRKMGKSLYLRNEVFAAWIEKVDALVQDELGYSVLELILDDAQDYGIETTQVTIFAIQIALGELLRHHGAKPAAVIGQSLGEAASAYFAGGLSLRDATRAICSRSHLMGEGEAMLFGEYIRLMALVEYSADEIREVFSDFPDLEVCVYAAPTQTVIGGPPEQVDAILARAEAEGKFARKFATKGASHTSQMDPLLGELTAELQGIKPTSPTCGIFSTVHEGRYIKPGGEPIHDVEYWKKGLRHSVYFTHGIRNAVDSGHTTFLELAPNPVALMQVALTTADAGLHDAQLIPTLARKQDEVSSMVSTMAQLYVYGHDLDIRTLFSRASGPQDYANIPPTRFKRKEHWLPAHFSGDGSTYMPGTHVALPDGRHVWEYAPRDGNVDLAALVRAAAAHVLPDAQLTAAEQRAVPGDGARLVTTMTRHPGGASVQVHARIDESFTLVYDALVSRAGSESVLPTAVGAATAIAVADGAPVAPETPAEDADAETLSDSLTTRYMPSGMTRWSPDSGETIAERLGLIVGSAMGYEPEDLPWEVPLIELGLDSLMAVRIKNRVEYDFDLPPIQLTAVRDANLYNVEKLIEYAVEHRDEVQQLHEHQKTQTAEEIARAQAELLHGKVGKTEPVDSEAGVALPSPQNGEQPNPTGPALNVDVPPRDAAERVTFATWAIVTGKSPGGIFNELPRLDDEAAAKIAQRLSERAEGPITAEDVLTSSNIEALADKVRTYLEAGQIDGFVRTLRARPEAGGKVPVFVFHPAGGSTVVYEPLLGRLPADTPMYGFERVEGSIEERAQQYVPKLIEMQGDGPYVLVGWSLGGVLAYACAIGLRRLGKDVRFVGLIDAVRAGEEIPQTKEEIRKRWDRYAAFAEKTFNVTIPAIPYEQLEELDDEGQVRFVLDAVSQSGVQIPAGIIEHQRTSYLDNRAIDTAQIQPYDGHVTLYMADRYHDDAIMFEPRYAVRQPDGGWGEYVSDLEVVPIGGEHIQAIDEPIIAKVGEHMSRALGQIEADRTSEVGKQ
UniProt P9WFT3, whole entry: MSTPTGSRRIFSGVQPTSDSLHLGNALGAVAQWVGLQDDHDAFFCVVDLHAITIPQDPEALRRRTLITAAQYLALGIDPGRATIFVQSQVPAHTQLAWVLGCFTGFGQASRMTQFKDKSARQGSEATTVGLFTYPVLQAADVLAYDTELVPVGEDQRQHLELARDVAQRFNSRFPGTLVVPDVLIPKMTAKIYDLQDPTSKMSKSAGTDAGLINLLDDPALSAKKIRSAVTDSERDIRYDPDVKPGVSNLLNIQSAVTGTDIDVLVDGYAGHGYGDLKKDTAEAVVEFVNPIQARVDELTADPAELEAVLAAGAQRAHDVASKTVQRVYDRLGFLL
UniProt Q4DA54, 1-478: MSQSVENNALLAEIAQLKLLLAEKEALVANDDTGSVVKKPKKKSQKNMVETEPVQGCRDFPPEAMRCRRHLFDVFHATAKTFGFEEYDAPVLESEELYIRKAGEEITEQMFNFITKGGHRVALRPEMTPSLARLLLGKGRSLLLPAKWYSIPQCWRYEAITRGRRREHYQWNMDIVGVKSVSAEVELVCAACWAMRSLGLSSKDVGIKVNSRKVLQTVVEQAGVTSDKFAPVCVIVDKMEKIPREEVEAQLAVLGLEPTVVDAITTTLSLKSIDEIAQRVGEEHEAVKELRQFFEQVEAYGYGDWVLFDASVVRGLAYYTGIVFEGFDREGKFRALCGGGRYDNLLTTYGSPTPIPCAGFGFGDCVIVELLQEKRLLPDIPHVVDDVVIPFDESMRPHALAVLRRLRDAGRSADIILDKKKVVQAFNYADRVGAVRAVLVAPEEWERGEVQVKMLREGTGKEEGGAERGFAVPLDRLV

The values are deposited in ChEMBL (CHEMBL3988442, “University of Dundee, Small-Polar-MMV Screening Library” (2021)).

The filed quantity is “Percent Effect” (%). The record does not define 0% and 100%; most values in the screen are far below 50% and negative numbers occur (in some assays of this library far below -100). The compounds are a random part of those screened. A dash means the value is not listed here; it may have been measured.

A: 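Enzyme assay of histidyl-tRNA synthetase; the read-out is not stated. Target: Histidine-tRNA ligase, Leishmania infantum (UniProt A4I591). Tested at 30 µM. The record gives no direction; compounds that gave an IC50 in retests scored well above the rest, so higher reads as stronger inhibition. The assay is labelled LdHisRS but filed under L. infantum. About 69,000 compounds were tested under these conditions; 0.6% (about 410) showed 50% or more at least once.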
B: 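Polyketide synthase Pks13, Mycobacterium tuberculosis (UniProt I6X8D2). Enzyme assay of the thioesterase domain of polyketide synthase 13; the read-out is not stated. Concentration: 30 µM. The record gives no direction; the compounds picked for IC50 retests had high values, so higher reads as stronger inhibition. Size under these conditions: about 67,000 compounds, about 300 of them at 50% or above in at least one test.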
C: 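Tryptophan-tRNA ligase, Mycobacterium tuberculosis (UniProt P9WFT3). Enzyme assay of tryptophanyl-tRNA synthetase; the read-out is not stated. Tested at 10 µM. Higher most likely means stronger inhibition; the record gives no direction and few retests gave an IC50. Of about 65,000 compounds tested this way, about 64 (0.098%) reached 50% or more in at least one test.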
D: 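Histidine-tRNA ligase, Trypanosoma cruzi CL Brener (UniProt Q4DA54). Enzyme assay of histidyl-tRNA synthetase; the read-out is not stated. Concentration: 30 µM. Direction is inferred from retests: higher values go with stronger inhibition. Of about 69,000 compounds tested this way, about 31 (0.045%) reached 50% or more in at least one test.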

compound: CCOc1nc2cnccc2n(CC(=O)NCc2ccco2)c1=O
A: 17.98
B: -9.945
C: 5.869
D: 8.543

compound: CN(C)C(=O)c1n[nH]c2c1CN(Cc1nccs1)CC2
A: 1.316
B: 0.2399
C: -6.542
D: 4.348

compound: Cc1ccc(C)c(OC2CCN(C(=O)c3ccc(O)nc3)CC2)c1
A: 45.6
C: -3.616
D: 0.3802

compound: CCN(CC)CCNC(=O)c1ccc(-n2ccc3ccccc32)s1
A: 11.24
B: 14.58
C: 2.935
D: 4.523

compound: CS(=O)(=O)CCCNC1(c2cccc(F)c2)CC1
A: 1.333
B: -24.68
C: -0.08842
D: 2.89

compound: CCS(=O)(=O)N1CC(c2nc(-c3ccsc3)no2)C1
A: 13.56
B: 11.17
C: -2.76
D: 2.439

compound: CN(Cc1nc2ccccc2n1C)C(=O)CCc1cscn1
A: 12
B: -17.14
C: 0.983
D: 4.762

compound: CN(Cc1ccco1)C(=O)CN1CCCC1Cn1cccn1 (configuration not stated)
A: 11.57
B: -15.12
C: 2.685
D: -1.681

compound: COCCC(=O)N1CCn2c(COCC3CC3)cnc2C1C (configuration not stated)
A: 5.882
B: -6.579
C: -2.78
D: 7.104

compound: CCOC(=O)c1ccccc1NC(=O)CN(C)Cc1ccccc1Cl
A: 17.95
B: 4.424
C: -6.69
D: 4.444

compound: Cn1nc(C2CCN(C(=O)CCN3CCOCC3)CC2)c2cccnc21
A: 1.042
D: -1.064

compound: Cc1ccsc1C(=O)N1CCn2cnc(COCC3CC3)c2C1
A: 16.81
B: -42.04
C: 1.833
D: 3.226

compound: Cc1nnc(N2CC[C@@H](OCC3CC3)[C@@H](Cc3ccccc3)C2)s1
A: 38.89
B: -45.47
C: -0.8364
D: 13.43

compound: CCc1ncc2c(n1)CN(Cc1ncc(C(C)(C)C)o1)CC2
A: 24.69
B: 3.152
C: 1.285
D: 9.202

compound: CC(C)CN1CCN(C(=O)c2[nH]nnc2Nc2ccccc2F)CC1
A: 15
B: -113.7
C: 2.712
D: -2.484

compound: CC(O)c1cn(C2CCN(C(=O)C3(C)CCCCC3)CC2)nn1 (configuration not stated)
A: 10.83
B: -5.727
C: -3.329
D: 2.899

Some entries from above, unchanged:

compound	A	B	C	D
Cc1ccc(C)c(OC2CCN(C(=O)c3ccc(O)nc3)CC2)c1	45.6	-	-3.616	0.3802
CCN(CC)CCNC(=O)c1ccc(-n2ccc3ccccc32)s1	11.24	14.58	2.935	4.523